Target: ERα in MCF7 cells (Homo sapiens (Human), UniProt P03372)
Assay: Test C: estrogen receptor degradation activity, ERα in cell western assay in MCF7 cells
Assay type: cell-based
Settings: 4 hours post compound addition, read-out: Degradation IC50
Method: Test C: Estrogen Receptor Degradation Activity
Test C involves measuring the in vitro degradation activity of the compounds of the invention.
The measurements of the degradation activities were made using abreast cancer cell ERα in cell western assay as described hereunder.
MCF7 cells (ATCC) were seeded in 384 wells microplate (collagen coated) at concentration of >9990 cells/30 μL per well in red phenol free MEM alpha medium (invitrogen) containing 5% charcoal dextran striped FBS. The following day, 9 points serial 1:5 dilution of each compound were added to the cells in 2.5 μL at final concentrations ranging from 3-0.000018 μM or 0.1 μM for fulvestrant (using as positive control). At 4 hours post compounds addition the cells were fixed by adding 25 μL of formalin (final concentration 5% formalin containing 0.1% triton) for 10 minutes at room temperature and then washed twice with PBS. Then, 50 μL of LI-COR blocking buffer containing 0.1% Triton was added to plate for 30 minutes at room temperature. LI-COR blocking buffer was removed and cells were incubated overnight at cold room with 50 μL anti-ER rabbit monoclonal antibody (Thermo scientific MA1-39540) diluted at 1:>999 in LI-COR blocking buffer containing 0.1% tween-20. […] Integrated intensities in the green fluorescence and red fluorescence were measured to determine the levels of ERα and DNA respectively.

Sequences of proteins named here, by UniProt entry; tags and fusion partners are left off.
UniProt P03372, whole entry: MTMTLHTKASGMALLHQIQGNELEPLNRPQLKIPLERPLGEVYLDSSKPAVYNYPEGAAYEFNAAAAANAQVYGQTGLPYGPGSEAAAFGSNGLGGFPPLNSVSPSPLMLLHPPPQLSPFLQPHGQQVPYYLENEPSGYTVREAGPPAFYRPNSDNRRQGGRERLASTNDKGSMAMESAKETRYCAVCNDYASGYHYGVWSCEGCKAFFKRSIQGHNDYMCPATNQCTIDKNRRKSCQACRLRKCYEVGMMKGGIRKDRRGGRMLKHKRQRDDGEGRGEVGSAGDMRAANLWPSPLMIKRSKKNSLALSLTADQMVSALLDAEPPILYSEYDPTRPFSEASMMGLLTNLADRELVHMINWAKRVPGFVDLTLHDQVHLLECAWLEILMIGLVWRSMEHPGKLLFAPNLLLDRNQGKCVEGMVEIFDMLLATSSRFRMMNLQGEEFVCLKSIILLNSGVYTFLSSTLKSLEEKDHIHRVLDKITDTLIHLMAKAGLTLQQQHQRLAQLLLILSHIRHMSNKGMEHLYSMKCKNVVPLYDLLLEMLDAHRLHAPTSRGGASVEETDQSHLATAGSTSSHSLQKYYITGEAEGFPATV

Which DC50 does the source give for `Oc1ccc(C2=C(c3ccc(O[C@H]4CCN(CCCF)C4)cc3)c3cc(O)ccc3CC2)cc1` [Example 2, 8-[4-[(3S)-1-(3-fluoropropyl)pyrrolidin-3-yl]oxyphenyl]-7-(4-hydroxyphenyl)-5,6-dihydronaphthalen-2-ol] here?
Its DC50 is 0.3 nM.

Reference: patent US11149031B2, “Substituted N-(3-fluoropropyl)-pyrrolidine compounds, processes for their preparation and therapeutic uses thereof” (SANOFI, priority 2016, dated 2021)
